Data taken from US20100233093A1, “Magnetic resonance imaging contrast agent with paramagnetic-inositol phosphates complexes” (GACHON UNIVERSITY OF MEDICINE & SCIENCE INDUSTRY-ACADEMIC …, priority 2009, published 2010).

Columns and labels:
[1] = ITC analysis of Gd^3+ binding to inositol phosphates; details: 10 mM HEPES pH 7.0, 298 K; for n1 (number of Gd^3+ bound per molecule): site I
[2] = ITC analysis of Ca^2+ binding to phytate; details: 310 K; for n1 (number of ions bound per phytate molecule): site I; for n2 (number of ions bound per phytate molecule): sites II&III
[3] = ITC analysis of Gd^3+ binding to DTPA; details: 298 K; for n1 (number of Gd^3+ bound per mole) / ΔS1: site I; for n2 (number of Gd^3+ bound per mole) / ΔS2: site II

Structure (SMILES): O=P(O)(O)O[C@H]1[C@H](O)[C@@H](O)[C@H](OP(=O)(O)O)[C@@H](OP(=O)(O)O)[C@H]1O [Inositol 1,3,4-tisphosphate, d-myo-inositol-1,3,4-trisphosphate]
- n1 (number of Gd^3+ bound per molecule) [1]: 1.71

Structure (SMILES): O=P(O)(O)O[C@@H]1[C@H](O)[C@H](O)[C@@H](OP(=O)(O)O)[C@H](OP(=O)(O)O)[C@H]1O [Inositol-1,4,5-tisphosphate, d-myo-inositol-1,4,5-trisphosphate]
- n1 (number of Gd^3+ bound per molecule) [1]: 1.28

Structure (SMILES): O=P(O)(O)OC1C(OP(=O)(O)O)C(OP(=O)(O)O)C(OP(=O)(O)O)C(OP(=O)(O)O)C1OP(=O)(O)O (stereo not drawn) [phytate]
- n1 (number of ions bound per phytate molecule) ([2]; pH 2): 0.80
- n1 (number of ions bound per phytate molecule) ([2]; pH 3): 0.72
- n1 (number of ions bound per phytate molecule) ([2]; pH 4): 0.89
- n1 (number of ions bound per phytate molecule) ([2]; pH 5): 1.18
- n1 (number of ions bound per phytate molecule) ([2]; pH 6): 1.27
- n1 (number of ions bound per phytate molecule) ([2]; pH 7): 0.54
- n1 (number of ions bound per phytate molecule) ([2]; pH 8): 0.1
- n1 (number of ions bound per phytate molecule) ([2]; pH 9): 0.45
- n2 (number of ions bound per phytate molecule) ([2]; pH 3): 2.73
- n2 (number of ions bound per phytate molecule) ([2]; pH 4): 3.11
- n2 (number of ions bound per phytate molecule) ([2]; pH 5): 4.24
- n2 (number of ions bound per phytate molecule) ([2]; pH 6): 2.01
- n2 (number of ions bound per phytate molecule) ([2]; pH 7): 1.84
- n2 (number of ions bound per phytate molecule) ([2]; pH 8): 2.52
- n2 (number of ions bound per phytate molecule) ([2]; pH 9): 2.77

Structure (SMILES): O=P(O)(O)OC1[C@H](O)[C@H](OP(=O)(O)O)C(OP(=O)(O)O)[C@H](OP(=O)(O)O)[C@H]1O (stereo partly drawn) [Inositol-1,3,4,5-tetraphosphate, d-myo-inositol-1,3,4,5-tetrakisphosphate]
- n1 (number of Gd^3+ bound per molecule) [1]: 1.97
- n2 (number of Gd^3+ bound per molecule) ([1]; site II): 0.11

Structure (SMILES): O=C(O)CN(CCN(CC(=O)O)CC(=O)O)CCN(CC(=O)O)CC(=O)O [DTPA, diethylene triamine pentaacetic acid]
- n1 (number of Gd^3+ bound per mole) ([3]; pH 4.8, 10 mM sodium acetate): 0.68
- ΔS1 ([3]; pH 4.8, 10 mM sodium acetate): 35.6 cal/mol/deg^−1
- n1 (number of Gd^3+ bound per mole) ([3]; pH 7.8): 0.7
- ΔS1 ([3]; pH 7.8): 22.2 cal/mol/deg^−1
- n2 (number of Gd^3+ bound per mole) ([3]; pH 4.8, 10 mM sodium acetate): 0.32
- ΔS2 ([3]; pH 4.8, 10 mM sodium acetate): 88.4 cal/mol/deg^−1
- n2 (number of Gd^3+ bound per mole) ([3]; pH 7.8): 0.9
- ΔS2 ([3]; pH 7.8): 39.4 cal/mol/deg^−1
